{"source": "PubChem BioAssay AID248", "about": "(DTP/NCI, 2004)", "system": "L1210 leukemia ip in BDF1 mice, survival T/C", "assay": "NCI In Vivo Anticancer Drug Screen. Data for tumor model L1210 Leukemia (intraperitoneal) in B6D2F1 (BDF1) mice", "conditions": "T/C endpoint: mean survival time, higher T/C = longer survival", "key": {"[1]": {"conditions": "dose: 50.0 mg/kg/injection, schedule: Q01DX009 (ip), vehicle: Klucel (hydroxypropylcellulose) (HPC)"}}, "note": "The list shows only some results of the screen, not a fair sample: it is rich in T/C values a quarter to a half above the control, in often repeated tests (any T/C) and in doses without a T/C. Other doses and runs of a compound stand elsewhere. T/C: endpoint of the treated group in % of that of the vehicle group. Some entries give survivors of the animals treated and no T/C: the source files T/C as zero there, which appears to mark a toxic dose or a test without result, not a measured value. Some survivor counts are full or nearly so, which does not show that the dose was tolerated: the source hardly ever lists a survival T/C far under the control, and the zero likely stands for such cases as well. Counts of survivors are from the toxicity check (mostly the fifth day) where no day follows; animals may have died later. Schedules are NCI's codes, taken here to give the interval after Q, in days (D) or hours (H), and the number of doses after X. Some schedules carry Z or #; the key to these is not given. Where survival is the endpoint, the PubChem record calls one and a half times the control and up active, and a quarter to a half above the control has no call in these data; cut-offs in other NCI protocols can differ. Some doses were run more than once; their values stand side by side, smallest first. Some T/C values carry the count of animals alive at the toxicity check (mostly the fifth day); where none is given, no animal had died by that day.", "data": [{"smiles": "O=c1[nH]cc(N(CCCl)CCCl)c(=O)[nH]1", "values": [{"measurement": "T/C", "setting": "dose: 0.15 mg/kg/injection, schedule: Q03DX006 (ip), vehicle: carboxymethylcellulose (CMC)", "value": "131 % of control"}, {"measurement": "T/C", "setting": "dose: 0.19 mg/kg/injection, schedule: Q#A X Z (ip), vehicle: carboxymethylcellulose (CMC)", "value": "125 % of control"}, {"measurement": "T/C", "setting": "dose: 0.25 mg/kg/injection, schedule: Q01DX001 (ip), vehicle: carboxymethylcellulose (CMC)", "value": "127 % of control"}, {"measurement": "T/C", "setting": "dose: 0.3 mg/kg/injection, schedule: Q01DX Z (ip), vehicle: carboxymethylcellulose (CMC)", "value": "125 % of control"}, {"measurement": "T/C", "setting": "dose: 0.3 mg/kg/injection, schedule: Q03DX006 (ip), vehicle: carboxymethylcellulose (CMC)", "value": "125 % of control"}, {"measurement": "T/C", "setting": "dose: 0.37 mg/kg/injection, schedule: Q#A X Z (ip), vehicle: carboxymethylcellulose (CMC)", "value": "132 % of control"}, {"measurement": "survivor count", "setting": "dose: 0.38 mg/kg/injection, schedule: Q01DX Z (ip), vehicle: carboxymethylcellulose (CMC)", "value": "6 of 6"}, {"measurement": "T/C", "setting": "dose: 0.6 mg/kg/injection, schedule: Q01DX Z (ip), vehicle: carboxymethylcellulose (CMC)", "value": "145 % of control"}, {"measurement": "T/C", "setting": "dose: 0.6 mg/kg/injection, schedule: Q03DX006 (ip), vehicle: carboxymethylcellulose (CMC)", "value": "130 % of control"}, {"measurement": "T/C", "setting": "dose: 0.63 mg/kg/injection, schedule: Q07DX003 (ip), vehicle: carboxymethylcellulose (CMC)", "value": "133 % of control"}, {"measurement": "T/C", "setting": "dose: 0.67 mg/kg/injection, schedule: Q01DX Z (ip), vehicle: carboxymethylcellulose (CMC)", "value": "137 % of control"}, {"measurement": "T/C", "setting": "dose: 0.75 mg/kg/injection, schedule: Q#A X Z (ip), vehicle: carboxymethylcellulose (CMC)", "value": "135 % of control"}, {"measurement": "T/C", "setting": "dose: 0.83 mg/kg/injection, schedule: Q01DX Z (ip), vehicle: carboxymethylcellulose (CMC)", "value": "148 % of control"}, {"measurement": "T/C", "setting": "dose: 1.0 mg/kg/injection, schedule: Q01DX001 (ip), vehicle: carboxymethylcellulose (CMC)", "value": "136 % of control"}, {"measurement": "T/C", "setting": "dose: 1.1 mg/kg/injection, schedule: Q03DX006 (ip), vehicle: carboxymethylcellulose (CMC)", "value": "135 % of control"}, {"measurement": "T/C", "setting": "dose: 1.12 mg/kg/injection, schedule: Q01DX Z (ip), vehicle: carboxymethylcellulose (CMC)", "value": "134 % of control"}, {"measurement": "T/C", "setting": "dose: 1.5 mg/kg/injection, schedule: Q01DX001 (ip), vehicle: carboxymethylcellulose (CMC)", "value": "141 % of control"}, {"measurement": "T/C", "setting": "dose: 1.5 mg/kg/injection, schedule: Q01DX Z (im), vehicle: carboxymethylcellulose (CMC)", "value": "125 % of control"}, {"measurement": "T/C", "setting": "dose: 1.5 mg/kg/injection, schedule: Q01DX Z (ip), vehicle: carboxymethylcellulose (CMC)", "value": "141 % of control"}, {"measurement": "T/C", "setting": "dose: 1.5 mg/kg/injection, schedule: Q01DX Z (ip), vehicle: saline", "value": "145 % of control [6 of 7 alive]"}, {"measurement": "T/C", "setting": "dose: 1.5 mg/kg/injection, schedule: Q01DX Z (sc), vehicle: carboxymethylcellulose (CMC)", "value": "143 % of control"}, {"measurement": "T/C", "setting": "dose: 1.5 mg/kg/injection, schedule: Q#A X Z (ip), vehicle: carboxymethylcellulose (CMC)", "value": "127 % of control"}, {"measurement": "T/C", "setting": "dose: 1.67 mg/kg/injection, schedule: Q01DX Z (ip), vehicle: carboxymethylcellulose (CMC)", "value": "144 % of control"}, {"measurement": "T/C", "setting": "dose: 1.8 mg/kg/injection, schedule: Q01DX Z (ip), vehicle: saline", "value": "129 and 144 % of control"}, {"measurement": "T/C", "setting": "dose: 2.0 mg/kg/injection, schedule: Q01DX001 (ip), vehicle: carboxymethylcellulose (CMC)", "value": "125 % of control"}, {"measurement": "T/C", "setting": "dose: 2.4 mg/kg/injection, schedule: Q01DX001 (ip), vehicle: carboxymethylcellulose (CMC)", "value": "147 % of control"}, {"measurement": "T/C", "setting": "dose: 2.4 mg/kg/injection, schedule: Q01DX001 (ip), vehicle: gum acacia", "value": "139 % of control"}, {"measurement": "T/C", "setting": "dose: 2.5 mg/kg/injection, schedule: Q01DX Z (ip), vehicle: saline", "value": "126 and 137 % of control"}, {"measurement": "T/C", "setting": "dose: 3.0 mg/kg/injection, schedule: Q01DX006 (iv), vehicle: carboxymethylcellulose (CMC)", "value": "137 % of control"}, {"measurement": "T/C", "setting": "dose: 3.0 mg/kg/injection, schedule: Q01DX Z (im), vehicle: carboxymethylcellulose (CMC)", "value": "125 and 139 % of control"}, {"measurement": "T/C", "setting": "dose: 3.0 mg/kg/injection, schedule: Q01DX Z (oral), vehicle: carboxymethylcellulose (CMC)", "value": "139 % of control"}, {"measurement": "T/C", "setting": "dose: 3.0 mg/kg/injection, schedule: Q01DX Z (sc), vehicle: carboxymethylcellulose (CMC)", "value": "135 and 141 % of control"}, {"measurement": "T/C", "setting": "dose: 3.0 mg/kg/injection, schedule: Q#A X Z (ip), vehicle: carboxymethylcellulose (CMC)", "value": "127 % of control"}, {"measurement": "T/C", "setting": "dose: 3.6 mg/kg/injection, schedule: Q01DX001 (ip), vehicle: gum acacia", "value": "142 % of control"}, {"measurement": "T/C", "setting": "dose: 3.7 mg/kg/injection, schedule: Q01DX Z (ip), vehicle: alkali diluted with saline", "value": "130 % of control"}, {"measurement": "survivor count", "setting": "dose: 3.7 mg/kg/injection, schedule: Q01DX Z (ip), vehicle: saline", "value": "4 of 6"}, {"measurement": "T/C", "setting": "dose: 5.0 mg/kg/injection, schedule: Q01DX001 (ip), vehicle: carboxymethylcellulose (CMC)", "value": "141 % of control"}, {"measurement": "survivor count", "setting": "dose: 5.0 mg/kg/injection, schedule: Q07DX003 (ip), vehicle: carboxymethylcellulose (CMC)", "value": "0 of 6"}, {"measurement": "survivor count", "setting": "dose: 5.5 mg/kg/injection, schedule: Q01DX Z (ip), vehicle: saline", "value": "6 of 6"}, {"measurement": "survivor count", "setting": "dose: 6.0 mg/kg/injection, schedule: Q01DX006 (iv), vehicle: carboxymethylcellulose (CMC)", "value": "3 of 6"}, {"measurement": "survivor count", "setting": "dose: 6.0 mg/kg/injection, schedule: Q01DX Z (ip), vehicle: carboxymethylcellulose (CMC)", "value": "6 of 6"}, {"measurement": "survivor count", "setting": "dose: 6.0 mg/kg/injection, schedule: Q01DX Z (ip), vehicle: saline", "value": "7 of 7"}, {"measurement": "survivor count", "setting": "dose: 9.0 mg/kg/injection, schedule: Q03DX006 (ip), vehicle: carboxymethylcellulose (CMC)", "value": "0 of 6"}, {"measurement": "survivor count", "setting": "dose: 10.0 mg/kg/injection, schedule: Q07DX003 (ip), vehicle: carboxymethylcellulose (CMC)", "value": "3 of 6"}, {"measurement": "survivor count", "setting": "dose: 12.0 mg/kg/injection, schedule: Q01DX Z (im), vehicle: carboxymethylcellulose (CMC)", "value": "6 of 6"}, {"measurement": "survivor count", "setting": "dose: 12.0 mg/kg/injection, schedule: Q01DX Z (ip), vehicle: carboxymethylcellulose (CMC)", "value": "4 of 6"}, {"measurement": "survivor count", "setting": "dose: 12.0 mg/kg/injection, schedule: Q01DX Z (oral), vehicle: carboxymethylcellulose (CMC)", "value": "4 of 6"}, {"measurement": "survivor count", "setting": "dose: 12.0 mg/kg/injection, schedule: Q01DX Z (sc), vehicle: carboxymethylcellulose (CMC)", "value": "5 of 6"}, {"measurement": "survivor count", "setting": "dose: 12.0 mg/kg/injection, schedule: Q#A X Z (ip), vehicle: carboxymethylcellulose (CMC)", "value": "6 of 6"}, {"measurement": "survivor count", "setting": "dose: 20.0 mg/kg/injection, schedule: Q01DX001 (ip), vehicle: carboxymethylcellulose (CMC)", "value": "3 of 6"}, {"measurement": "survivor count", "setting": "dose: 21.0 mg/kg/injection, schedule: Q07DX003 (ip), vehicle: carboxymethylcellulose (CMC)", "value": "0 of 6"}, {"measurement": "T/C", "setting": "dose: 66.0 micrograms/kg/injection, schedule: Q01DX Z (ip), vehicle: saline", "value": "138 % of control"}]}, {"smiles": "Cc1cc(N(CCOS(C)(=O)=O)CCOS(C)(=O)=O)ccc1C=Nc1ccc(-c2csc(Cc3ccccc3)n2)cc1", "values": [{"measurement": "T/C", "setting": "[1]", "value": "141 % of control"}]}, {"smiles": "Oc1ccc(CNCc2ccccc2)c2cccnc12", "values": [{"measurement": "survivor count", "setting": "dose: 150.0 mg/kg/injection, schedule: Q01DX001 (ip), vehicle: saline", "value": "5 of 6"}, {"measurement": "survivor count", "setting": "dose: 300.0 mg/kg/injection, schedule: Q01DX001 (ip), vehicle: saline", "value": "0 of 6"}]}, {"smiles": "CS(=O)(=O)OCCN(CCOS(C)(=O)=O)c1ccc(C=Nc2ccc(-c3csc(-c4ccc(Br)cc4)n3)cc2)cc1", "values": [{"measurement": "survivor count", "setting": "dose: 100.0 mg/kg/injection, schedule: Q01DX009 (ip), vehicle: Klucel (hydroxypropylcellulose) (HPC)", "value": "6 of 6"}]}, {"smiles": "O=NN(CCCl)C(=O)c1cc(Cl)cc(Cl)c1", "values": [{"measurement": "survivor count", "setting": "dose: 100.0 mg/kg/injection, schedule: Q04DX003 (ip), vehicle: saline with Tween-80", "value": "2 of 6"}, {"measurement": "survivor count", "setting": "dose: 200.0 mg/kg/injection, schedule: Q04DX003 (ip), vehicle: saline with Tween-80", "value": "1 of 6"}, {"measurement": "survivor count", "setting": "dose: 400.0 mg/kg/injection, schedule: Q04DX003 (ip), vehicle: saline with Tween-80", "value": "0 of 6"}]}, {"smiles": "CC(C)CN(CCCCO)CC(C)C", "values": [{"measurement": "survivor count", "setting": "dose: 400.0 mg/kg/injection, schedule: Q01DX009 (ip), vehicle: saline with Tween-80", "value": "1 of 6"}]}, {"smiles": "CC(=O)CC(=O)Nc1cccc(Cl)c1C", "values": [{"measurement": "survivor count", "setting": "dose: 400.0 mg/kg/injection, schedule: Q01DX009 (ip), vehicle: Klucel (hydroxypropylcellulose) (HPC)", "value": "1 of 6"}]}, {"smiles": "Oc1c(CN2CCCC2)cc(Nc2cc(/C=C/c3ccc(Cl)cc3)nc(/C=C\\c3ccc(Cl)cc3)n2)cc1CN1CCCC1", "values": [{"measurement": "survivor count", "setting": "dose: 25.0 mg/kg/injection, schedule: Q01DX009 (ip), vehicle: Klucel (hydroxypropylcellulose) (HPC)", "value": "3 of 6"}, {"measurement": "survivor count", "setting": "dose: 25.0 mg/kg/injection, schedule: Q04DX003 (ip), vehicle: saline", "value": "6 of 6"}, {"measurement": "survivor count", "setting": "[1]", "value": "0 of 6"}, {"measurement": "survivor count", "setting": "dose: 100.0 mg/kg/injection, schedule: Q04DX003 (ip), vehicle: saline", "value": "1 of 6"}, {"measurement": "survivor count", "setting": "dose: 200.0 mg/kg/injection, schedule: Q04DX003 (ip), vehicle: saline", "value": "0 of 6"}, {"measurement": "survivor count", "setting": "dose: 400.0 mg/kg/injection, schedule: Q04DX003 (ip), vehicle: saline", "value": "0 of 6"}]}, {"smiles": "NNC(=O)NC(=O)NN", "values": [{"measurement": "survivor count", "setting": "dose: 400.0 mg/kg/injection, schedule: Q01DX001 (ip), vehicle: saline", "value": "2 of 6"}]}]}
